PubChem BioAssay AID720505 | Drosophila RNAi Screening Center, 2013
Test: 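Knock-downs that reduce calcium influx once internal stores are emptied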 (primary screen). System: Drosophila S2R+ cells. Knock-down reagent: long dsRNA against Drosophila genes. Treatment: thapsigargin (2 µM) in calcium-free buffer to empty internal stores, then 2 mM calcium added back. Measurement: 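Stores emptied by 2 µM thapsigargin without calcium, then 2 mM calcium re-added; fluo-4 fluorescence followed by FLIPR in 384-well plates, per-well averaged endpoint, raw; two screen passes, some wells retested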. Direction: calcium signal and retest calcium signal: higher = more calcium entry after store depletion. Active means: 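About 1500 genes called as lowering calcium entry, by varying amounts, judged against per-plate control wells with STIM1 as positive and Rho1 as negative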. Meaning of the calls: active = called as lowering calcium entry; inactive = not called.
The deposit covers about 20,000 reagents; this is a random part of those with a known target gene and a result. Of all reagents, about 2,100 (10%) were called active. 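Raw plate signals without normalisation; calls rest on control-based scores that were not deposited; replicate 2 separates called from uncalled poorly.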 Unmarked entries are inactive. Names joined by + are all predicted targets of the reagent. The record does not give: the amount of reagent, the time to read-out.

gene knocked down	dsRNA	calcium signal, replicate 1	calcium signal, replicate 2	retest calcium signal, replicate 1	retest calcium signal, replicate 2
stai (GeneID 33863)	DRSC02920	166	79.7		
stai (GeneID 33863)	DRSC22235	82.9	185		
CG8191 + CG12379	DRSC19451	89.9	127		
VhaPPA1-1 (GeneID 45247)	DRSC16170	99.5	89.6		
RpL23 (GeneID 37628)	DRSC04648	108	221		
CG15071 (GeneID 37153)	DRSC06504	157	192		
hlk (GeneID 46017)	DRSC05021	102	176		
hlk (GeneID 46017)	DRSC05022	120	188		
CG13893 (GeneID 38074)	DRSC08363	104	95.5		
CG14982 (GeneID 38464)	DRSC08440	83.6	83.6		
CG14982 (GeneID 38464)	DRSC23022	98.8	146		
Wnt10 (GeneID 34011)	DRSC00990	96.7	75		
Wnt10 (GeneID 34011)	DRSC02797	69.2 (active)	192		
eIF2Bgamma (GeneID 36722)	DRSC07100	106	123		
CG5196 (GeneID 41522)	DRSC15735	179	113		
Rdh (GeneID 2769007)	DRSC08434	104	79.6	92.4	88.9
Jon99Cii (GeneID 43544)	DRSC16858	179	151		
Jon99Cii (GeneID 43544)	DRSC22574	107	172		
mRpS29 (GeneID 37563)	DRSC04398	201	82.4		
CG8141 (GeneID 41622)	DRSC16387	107	152		
CG15563 (GeneID 43695)	DRSC15101	105	96.9		
Atg18b (GeneID 35396)	DRSC03108	183	148		
CG17377 (GeneID 33954)	DRSC00950	77.7	159	8648	177
CG17377 (GeneID 33954)	DRSC02615	73.7	119		
CG17377 (GeneID 33954)	DRSC21811	56 (active)	116		
CG33477 (GeneID 2768726)	DRSC22934	90.7	131		
CG5961 (GeneID 41541)	DRSC15927	109	164		
tim (GeneID 33571)	DRSC00841	128	307		
PGRP-SC1a (GeneID 35859)	DRSC06482	134	172		
Rab3 (GeneID 36127)	DRSC07523	131	159		
CG15020 (GeneID 38544)	DRSC08474	87.5	79		
Reck (GeneID 39629)	DRSC10504	129	80.6		
Reck (GeneID 39629)	DRSC10505	92.1	144		
Neos (GeneID 38795)	DRSC11235	77.3	115		
CG31612 (GeneID 35427)	DRSC03697	59 (active)	98	76.6	93.1
CG31612 (GeneID 35427)	DRSC03698	105	84.5		
Acp29AB (GeneID 34162)	DRSC01857	163	144		
Fancl (GeneID 41231)	DRSC14550	50.7 (active)	73.5		
CG13318 (GeneID 41048)	DRSC14581	144	189		
CG11555 (GeneID 33193)	DRSC00315	172	143		
CG42521 (GeneID 8674012)	DRSC10154	104	80.4		
nur (GeneID 318957)	DRSC01342	171	77.4		
CG10803 (GeneID 31320)	DRSC17763	88.8	168		
CG12605 (GeneID 38468)	DRSC08286	82.2	118		
dnc (GeneID 31309)	DRSC17758	121	135		
dnc (GeneID 31309)	DRSC17759	118	144		
dnc (GeneID 31309)	DRSC17911	105	122		
dnc (GeneID 31309)	DRSC18763	118	120		
dnc (GeneID 31309)	DRSC18764	54.8 (active)	97.6		
CG10208 (GeneID 42814)	DRSC14211	96	103		
CARPB (GeneID 31915)	DRSC18437	121	109	98.3	77.9
CARPB (GeneID 31915)	DRSC18438	49.8 (active)	55.3		
Hen1 (GeneID 36301)	DRSC06139	153	132		
Hen1 (GeneID 36301)	DRSC06140	84.5	113		
CG9945 (GeneID 37329)	DRSC07347	84.2	83.9		
Zfrp8 (GeneID 45021)	DRSC04352	96.8	145		
CR11386 + CR33222	DRSC17781	116	121		
EMRE (GeneID 37071)	DRSC06686	171	148		
zld (GeneID 32994)	DRSC19486	96.9	96.2		
zld (GeneID 32994)	DRSC21721	121	91.6		
zld (GeneID 32994)	DRSC23098	124	130		
SPARC (GeneID 43230)	DRSC14123	111	107		
Polr1H (GeneID 42563)	DRSC14594	104	152		
CG13075 (GeneID 39756)	DRSC09958	124	197		
ais (GeneID 39979)	DRSC10523	133	81.8		
GstD9 (GeneID 41502)	DRSC14185	121	94.9		
CG12744 (GeneID 36024)	DRSC06164	163	193		
CG30020 (GeneID 36156)	DRSC06252	94	168		
CG30020 (GeneID 36156)	DRSC06730	102	107		
Mgat1 (GeneID 37323)	DRSC07463	66.9	109		
cDIP (GeneID 42512)	DRSC14267	184	239		
TfIIB (GeneID 34430)	DRSC03454	170	113		
Msr-110 (GeneID 38629)	DRSC11227	90	106		
CG13074 (GeneID 39760)	DRSC09957	83.6	139		
DCX-EMAP (GeneID 39617)	DRSC10012	81.9	107		
DCX-EMAP (GeneID 39617)	DRSC10013	110	180		
CG11590 (GeneID 32368)	DRSC19411	75.1	127		
eIF4E3 (GeneID 38923)	DRSC10952	65.8 (active)	106		
Ttc19 (GeneID 35172)	DRSC02474	173	139		
CG31109 (GeneID 43001)	DRSC14648	178	121		
Ddc (GeneID 35190)	DRSC03314	195	76.4		
CG3246 (GeneID 33564)	DRSC00584	161	140		
CG14752 (GeneID 35840)	DRSC06488	133	182		
Uhg2 + snoRNA:Me18S-G1620 + snoRNA:U14:30Ea	DRSC01100	136	125		
CG14109 (GeneID 39512)	DRSC10112	106	136		
CG10073 (GeneID 37225)	DRSC05961	132	146		
CG14823 (GeneID 38772)	DRSC10194	169	92.4		
CG9643 (GeneID 33504)	DRSC00722	114	92.1		
CG11807 (GeneID 36683)	DRSC06087	121	130		
CG9030 (GeneID 32427)	DRSC20139	65.7 (active)	133		
CG7295 (GeneID 33365)	DRSC00699	83.8	155		
Rsf1 (GeneID 34370)	DRSC03423	122	137		
Rsf1 (GeneID 34370)	DRSC21953	89	218		
nonA (GeneID 32603)	DRSC20357	96.1	105		
kis (GeneID 33185)	DRSC00521	201	114		
kis (GeneID 33185)	DRSC00625	170	140		
kis (GeneID 33185)	DRSC00823	83	165		
Toll-9 (GeneID 40245)	DRSC11776	105	156		
CG11262 (GeneID 39471)	DRSC09831	71.1	127		
MAN1 (GeneID 37838)	DRSC04342	191	90.7		
Blos4 (GeneID 39219)	DRSC10151	78.4	69.4		
Iris (GeneID 33290)	DRSC00663	126	203		
c12.2 (GeneID 53434)	DRSC18751	81.7	82.7		
srp (GeneID 41944)	DRSC17068	203	218		
srp (GeneID 41944)	DRSC23166	160	130		
Caf1-105 (GeneID 36107)	DRSC06209	138	128		
